Source: the supplement of paper PMC6411743
± gives the standard deviation of the averaged measurements. The list shows a part of the results, in another mix than the full data. Most values lie at the level of the controls, where differences are scatter.

By UniProt entry, the sequences of proteins in these tests, tags left out. Where a name states a change or a piece, a line headed by the entry shows the natural chain unless it says otherwise.
UniProt P49321, whole entry: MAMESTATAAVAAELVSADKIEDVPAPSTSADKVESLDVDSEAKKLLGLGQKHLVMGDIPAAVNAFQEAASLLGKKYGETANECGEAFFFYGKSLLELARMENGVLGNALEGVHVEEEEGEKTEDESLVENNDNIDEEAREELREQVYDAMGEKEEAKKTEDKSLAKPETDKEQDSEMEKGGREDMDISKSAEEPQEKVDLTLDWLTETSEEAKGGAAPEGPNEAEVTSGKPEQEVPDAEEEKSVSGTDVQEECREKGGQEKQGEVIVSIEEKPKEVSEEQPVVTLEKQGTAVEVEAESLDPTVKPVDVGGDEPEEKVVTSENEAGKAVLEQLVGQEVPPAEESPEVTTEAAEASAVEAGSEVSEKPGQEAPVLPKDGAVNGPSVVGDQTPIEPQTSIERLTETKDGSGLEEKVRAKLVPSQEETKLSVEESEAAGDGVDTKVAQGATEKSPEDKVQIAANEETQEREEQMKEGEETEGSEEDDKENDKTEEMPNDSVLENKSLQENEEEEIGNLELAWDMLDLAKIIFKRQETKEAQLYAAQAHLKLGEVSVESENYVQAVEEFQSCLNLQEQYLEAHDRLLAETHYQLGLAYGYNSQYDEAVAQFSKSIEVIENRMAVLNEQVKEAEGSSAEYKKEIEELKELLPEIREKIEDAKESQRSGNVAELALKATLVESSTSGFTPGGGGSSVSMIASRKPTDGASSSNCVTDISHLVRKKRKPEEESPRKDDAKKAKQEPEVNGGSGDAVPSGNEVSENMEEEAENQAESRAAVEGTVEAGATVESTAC
UniProt Q5JPH6: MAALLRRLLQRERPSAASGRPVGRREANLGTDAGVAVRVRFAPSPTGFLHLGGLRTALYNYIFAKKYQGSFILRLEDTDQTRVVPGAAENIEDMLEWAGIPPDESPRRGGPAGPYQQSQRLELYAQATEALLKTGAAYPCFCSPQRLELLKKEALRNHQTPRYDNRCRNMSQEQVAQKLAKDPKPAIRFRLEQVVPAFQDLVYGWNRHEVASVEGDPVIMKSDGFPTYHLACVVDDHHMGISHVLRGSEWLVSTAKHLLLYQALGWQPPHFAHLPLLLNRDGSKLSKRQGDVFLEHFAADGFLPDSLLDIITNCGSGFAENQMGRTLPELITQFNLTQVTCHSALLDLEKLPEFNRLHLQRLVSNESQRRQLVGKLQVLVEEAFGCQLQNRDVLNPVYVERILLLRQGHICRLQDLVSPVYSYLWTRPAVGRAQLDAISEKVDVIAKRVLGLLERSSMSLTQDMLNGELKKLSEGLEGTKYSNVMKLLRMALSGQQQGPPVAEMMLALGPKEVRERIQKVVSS
UniProt Q96QT4: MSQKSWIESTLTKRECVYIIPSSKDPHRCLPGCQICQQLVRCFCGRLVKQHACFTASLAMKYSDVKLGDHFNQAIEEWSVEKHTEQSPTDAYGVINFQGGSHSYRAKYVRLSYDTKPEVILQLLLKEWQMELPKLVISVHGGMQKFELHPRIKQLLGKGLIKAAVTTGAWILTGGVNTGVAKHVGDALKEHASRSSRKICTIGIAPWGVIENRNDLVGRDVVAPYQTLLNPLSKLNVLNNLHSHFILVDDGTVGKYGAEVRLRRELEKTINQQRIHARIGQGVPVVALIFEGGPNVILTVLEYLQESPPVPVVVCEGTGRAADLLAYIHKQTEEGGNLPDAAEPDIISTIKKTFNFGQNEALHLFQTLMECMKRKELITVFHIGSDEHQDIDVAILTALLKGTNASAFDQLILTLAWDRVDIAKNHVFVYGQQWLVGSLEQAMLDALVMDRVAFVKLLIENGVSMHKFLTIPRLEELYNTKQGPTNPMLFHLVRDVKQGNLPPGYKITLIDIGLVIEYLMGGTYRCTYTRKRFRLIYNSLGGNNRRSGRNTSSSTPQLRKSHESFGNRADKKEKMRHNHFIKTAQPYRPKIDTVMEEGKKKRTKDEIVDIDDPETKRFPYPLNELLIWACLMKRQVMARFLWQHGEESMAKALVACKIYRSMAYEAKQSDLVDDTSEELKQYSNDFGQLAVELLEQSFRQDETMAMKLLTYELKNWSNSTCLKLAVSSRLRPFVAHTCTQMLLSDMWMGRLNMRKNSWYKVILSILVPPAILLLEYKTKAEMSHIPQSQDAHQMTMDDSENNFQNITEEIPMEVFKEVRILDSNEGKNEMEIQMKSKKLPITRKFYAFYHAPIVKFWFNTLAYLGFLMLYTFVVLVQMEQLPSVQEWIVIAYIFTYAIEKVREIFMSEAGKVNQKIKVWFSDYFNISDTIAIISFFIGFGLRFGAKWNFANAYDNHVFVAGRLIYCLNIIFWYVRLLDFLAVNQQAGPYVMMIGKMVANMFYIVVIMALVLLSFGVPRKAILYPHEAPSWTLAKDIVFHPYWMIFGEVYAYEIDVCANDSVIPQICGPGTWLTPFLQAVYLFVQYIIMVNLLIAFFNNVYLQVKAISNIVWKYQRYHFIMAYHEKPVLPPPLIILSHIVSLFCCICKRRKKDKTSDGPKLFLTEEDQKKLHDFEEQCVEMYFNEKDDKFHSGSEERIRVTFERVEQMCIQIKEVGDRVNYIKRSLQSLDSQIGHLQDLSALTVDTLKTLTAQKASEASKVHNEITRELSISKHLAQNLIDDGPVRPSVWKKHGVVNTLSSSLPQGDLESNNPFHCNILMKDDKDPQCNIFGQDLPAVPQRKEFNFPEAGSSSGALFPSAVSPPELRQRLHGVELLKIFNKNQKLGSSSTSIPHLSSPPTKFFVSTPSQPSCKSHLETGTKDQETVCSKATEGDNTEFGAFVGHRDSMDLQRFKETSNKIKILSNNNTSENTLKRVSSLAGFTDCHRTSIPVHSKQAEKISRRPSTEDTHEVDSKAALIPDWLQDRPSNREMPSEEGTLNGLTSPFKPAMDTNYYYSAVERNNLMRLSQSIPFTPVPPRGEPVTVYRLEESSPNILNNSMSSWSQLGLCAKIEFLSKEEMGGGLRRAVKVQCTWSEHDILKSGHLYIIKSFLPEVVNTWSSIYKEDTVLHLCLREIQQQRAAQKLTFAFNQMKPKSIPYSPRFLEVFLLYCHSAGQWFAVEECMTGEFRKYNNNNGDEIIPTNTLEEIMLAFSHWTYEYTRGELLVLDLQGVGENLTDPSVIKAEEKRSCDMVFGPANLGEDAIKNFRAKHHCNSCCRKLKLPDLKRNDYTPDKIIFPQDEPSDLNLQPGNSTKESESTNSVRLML
UniProt Q9Y2K7: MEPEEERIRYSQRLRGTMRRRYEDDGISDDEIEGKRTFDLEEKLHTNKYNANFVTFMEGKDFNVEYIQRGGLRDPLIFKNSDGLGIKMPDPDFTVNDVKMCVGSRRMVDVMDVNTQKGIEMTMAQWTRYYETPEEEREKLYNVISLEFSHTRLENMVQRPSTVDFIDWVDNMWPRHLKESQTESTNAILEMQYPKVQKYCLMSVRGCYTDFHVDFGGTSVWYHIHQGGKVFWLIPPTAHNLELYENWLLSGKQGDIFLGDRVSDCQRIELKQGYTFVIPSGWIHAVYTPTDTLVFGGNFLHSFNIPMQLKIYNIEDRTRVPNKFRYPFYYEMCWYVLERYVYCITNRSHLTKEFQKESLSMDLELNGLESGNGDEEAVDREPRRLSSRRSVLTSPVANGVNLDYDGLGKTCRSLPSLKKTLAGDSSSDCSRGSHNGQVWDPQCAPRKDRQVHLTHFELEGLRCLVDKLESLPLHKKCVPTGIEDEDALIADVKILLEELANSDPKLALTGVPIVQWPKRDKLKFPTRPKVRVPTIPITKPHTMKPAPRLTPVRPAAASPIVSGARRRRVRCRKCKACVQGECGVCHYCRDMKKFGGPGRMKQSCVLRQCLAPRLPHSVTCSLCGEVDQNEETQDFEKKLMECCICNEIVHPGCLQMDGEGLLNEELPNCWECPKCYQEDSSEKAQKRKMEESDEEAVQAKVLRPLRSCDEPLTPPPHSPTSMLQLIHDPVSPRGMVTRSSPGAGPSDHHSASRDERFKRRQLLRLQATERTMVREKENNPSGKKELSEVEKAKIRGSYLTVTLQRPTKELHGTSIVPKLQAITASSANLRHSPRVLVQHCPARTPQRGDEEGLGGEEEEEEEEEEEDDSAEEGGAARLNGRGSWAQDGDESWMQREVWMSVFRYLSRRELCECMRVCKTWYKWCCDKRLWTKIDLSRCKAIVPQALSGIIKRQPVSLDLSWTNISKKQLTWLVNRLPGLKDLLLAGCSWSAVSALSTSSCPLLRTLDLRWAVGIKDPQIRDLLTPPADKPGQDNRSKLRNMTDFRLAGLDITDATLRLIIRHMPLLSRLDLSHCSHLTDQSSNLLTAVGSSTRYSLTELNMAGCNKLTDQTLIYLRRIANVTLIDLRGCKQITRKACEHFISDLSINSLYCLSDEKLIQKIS
UniProt L0R6Q1: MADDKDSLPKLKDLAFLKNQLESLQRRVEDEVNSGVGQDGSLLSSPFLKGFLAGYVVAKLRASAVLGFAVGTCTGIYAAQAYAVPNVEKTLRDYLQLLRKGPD
UniProt Q9BXC9: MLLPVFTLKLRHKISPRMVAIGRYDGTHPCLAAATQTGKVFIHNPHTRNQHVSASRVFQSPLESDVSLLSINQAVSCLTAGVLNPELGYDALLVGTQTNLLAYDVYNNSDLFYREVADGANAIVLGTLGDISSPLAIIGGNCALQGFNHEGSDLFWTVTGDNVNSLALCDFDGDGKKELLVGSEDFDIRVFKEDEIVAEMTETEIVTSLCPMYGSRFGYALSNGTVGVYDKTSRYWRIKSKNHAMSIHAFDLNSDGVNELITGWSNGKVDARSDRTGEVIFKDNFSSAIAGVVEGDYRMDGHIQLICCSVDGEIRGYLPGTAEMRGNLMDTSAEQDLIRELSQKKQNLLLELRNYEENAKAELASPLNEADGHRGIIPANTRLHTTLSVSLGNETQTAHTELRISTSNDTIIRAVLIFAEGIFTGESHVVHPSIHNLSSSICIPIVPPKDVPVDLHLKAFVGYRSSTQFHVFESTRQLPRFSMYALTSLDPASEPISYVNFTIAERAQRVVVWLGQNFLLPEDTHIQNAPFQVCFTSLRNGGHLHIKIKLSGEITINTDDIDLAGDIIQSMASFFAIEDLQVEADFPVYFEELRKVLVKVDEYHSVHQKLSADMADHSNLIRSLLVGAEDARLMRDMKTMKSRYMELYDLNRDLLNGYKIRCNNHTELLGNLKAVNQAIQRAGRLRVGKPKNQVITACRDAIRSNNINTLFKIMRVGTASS
UniProt Q68DK7: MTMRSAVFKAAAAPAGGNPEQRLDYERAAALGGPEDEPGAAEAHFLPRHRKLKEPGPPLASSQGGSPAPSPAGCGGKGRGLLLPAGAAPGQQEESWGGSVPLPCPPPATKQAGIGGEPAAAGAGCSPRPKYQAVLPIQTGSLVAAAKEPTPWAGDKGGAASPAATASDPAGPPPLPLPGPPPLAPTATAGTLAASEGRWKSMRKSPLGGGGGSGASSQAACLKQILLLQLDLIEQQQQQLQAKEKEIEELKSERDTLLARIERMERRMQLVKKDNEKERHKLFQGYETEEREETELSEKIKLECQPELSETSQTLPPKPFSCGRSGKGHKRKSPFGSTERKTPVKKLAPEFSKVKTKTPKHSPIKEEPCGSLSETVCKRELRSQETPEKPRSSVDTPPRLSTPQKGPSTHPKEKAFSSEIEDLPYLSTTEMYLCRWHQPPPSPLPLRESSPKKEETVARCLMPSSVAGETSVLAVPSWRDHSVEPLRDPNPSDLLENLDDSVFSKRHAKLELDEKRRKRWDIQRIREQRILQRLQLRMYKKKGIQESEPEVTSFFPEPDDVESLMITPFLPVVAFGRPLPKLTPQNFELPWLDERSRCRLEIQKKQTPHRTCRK
UniProt Q99547: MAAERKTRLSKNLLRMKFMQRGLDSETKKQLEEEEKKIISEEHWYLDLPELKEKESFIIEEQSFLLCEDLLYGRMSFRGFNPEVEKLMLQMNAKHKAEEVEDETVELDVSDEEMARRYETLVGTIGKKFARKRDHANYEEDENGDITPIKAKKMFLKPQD
UniProt P35236: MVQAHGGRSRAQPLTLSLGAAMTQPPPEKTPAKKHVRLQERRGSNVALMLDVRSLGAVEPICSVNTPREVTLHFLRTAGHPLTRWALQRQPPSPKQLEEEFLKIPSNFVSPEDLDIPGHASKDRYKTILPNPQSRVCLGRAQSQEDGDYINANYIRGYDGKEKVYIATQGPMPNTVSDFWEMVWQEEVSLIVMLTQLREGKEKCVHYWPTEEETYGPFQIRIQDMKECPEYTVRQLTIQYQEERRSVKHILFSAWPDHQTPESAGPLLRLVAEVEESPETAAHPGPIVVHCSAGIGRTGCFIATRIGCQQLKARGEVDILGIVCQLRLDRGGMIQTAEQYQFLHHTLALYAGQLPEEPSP
UniProt Q6UW68: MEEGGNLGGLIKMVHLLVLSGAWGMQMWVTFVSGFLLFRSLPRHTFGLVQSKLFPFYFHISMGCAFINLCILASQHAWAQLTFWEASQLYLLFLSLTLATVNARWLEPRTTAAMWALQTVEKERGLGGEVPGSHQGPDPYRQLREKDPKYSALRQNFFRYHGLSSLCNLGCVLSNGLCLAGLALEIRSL

Compound: Nc1ncnc2c1ncn2[C@@H]1O[C@H](COP(=O)(O)OP(=O)(O)OP(=O)(O)O)[C@@H](O)[C@H]1O [adenosine triphosphate]
Assay: NP40-soluble protein abundance relative to vehicle (solubility fold change) (ratio); higher = more soluble protein in presence of ATP
Summary of the method: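 In three independent experiments, Jurkat crude lysate made by Dounce homogenisation was treated for 10 min at room temperature and then 3 min at 37 °C with eight concentrations ranging from 0.1 to 10 mM. It was then solubilised with 0.8% NP40 plus benzonase for 60 min at 4 °C and ultracentrifuged. The supernatant was TMT-labelled for LC-MS/MS, and each value is the fold change against the detergent-processed vehicle for the same replicate, using vsn-normalised intensities.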

Row | Target | NP40-soluble protein abundance (concentration: 0.1mM) | NP40-soluble protein abundance (concentration: 0.5mM)
1 | H0YDS9 and related entries (UniProt P49321) | 0.932 ± 0.032 | 0.934 ± 0.019
2 | J3KQN4 and related entries (UniProt P83881) | 0.899 ± 0.059 | 0.869 ± 0.053
3 | H3BTB7 and related entries (UniProt Q5JPH6) | 0.976 ± 0.047 | 1.01 ± 0.063
4 | H0YLN8 and related entries (UniProt Q96QT4) | 1.038 ± 0.0011 | 1.07 ± 0.063
5 | H0Y5D5 and related entries (UniProt Q9ULV3) | 0.972 ± 0.03 | 0.971 ± 0.042
6 | H0YEL0 and related entries (UniProt O14893) | 0.942 ± 0.1 | 0.949 ± 0.054
7 | I3VM54 and related entries (UniProt Q9Y2K7) | 1.06 ± 0.051 | 1.16 ± 0.043
8 | SLC35A4 (UniProt L0R6Q1) | 0.807 ± 0.2 | 0.786 ± 0.22
9 | J3KN32 and related entries (UniProt Q9UKL0) | 0.972 ± 0.065 | 0.993 ± 0.047
10 | H3BRL0 and related entries (UniProt Q9BXC9) | 1.01 ± 0.018 | 0.937 ± 0.025
11 | J3KSZ8 and related entries (UniProt Q68DK7) | 1.09 ± 0.14 | 1.14 ± 0.059
12 | H3BNT4 and related entries (UniProt Q99547) | 0.958 ± 0.064 | 1.03 ± 0.11
13 | H7C5I3 and related entries (UniProt P35236) | 1.02 ± 0.04 | 1.03 ± 0.017
14 | K7ELQ9 and related entries (UniProt Q6UW68) | 1.06 ± 0.079 | 1.09 ± 0.019
15 | J3KNS1 and related entries (UniProt Q9UPW5) | 1.03 ± 0.04 | 1.06 ± 0.018
16 | H0YA20 and related entries (UniProt P52824) | 0.981 ± 0.03 | 0.978 ± 0.025

In another format: results already given.

| Row | Target | NP40-soluble protein abundance (concentration: 0.1mM) | NP40-soluble protein abundance (concentration: 0.5mM) |
| --- | --- | --- | --- |
| 6 | H0YEL0 and related entries (UniProt O14893) | 0.942 ± 0.1 | 0.949 ± 0.054 |
| 7 | I3VM54 and related entries (UniProt Q9Y2K7) | 1.06 ± 0.051 | 1.16 ± 0.043 |
| 8 | SLC35A4 (UniProt L0R6Q1) | 0.807 ± 0.2 | 0.786 ± 0.22 |
